Taken from: PubChem BioAssay AID504804 (Drosophila RNAi Screening Center, 2011)

- Screen: 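dsRNAs that improve Kc cell survival under doxorubicin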 (primary screen)
- System: Drosophila Kc cells
- Reagents: long dsRNA against Drosophila genes, 0.5 µg dsRNA per well
- Timing: 96 h (48 h knock-down, then 48 h drug)
- Treatment: doxorubicin 5 µg/ml for 48 h, added 48 h after dsRNA
- Measured: 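Luminescent ATP counts per replicate, not normalised, reflecting viable cells after 48 h dsRNA knock-down followed by 48 h of 5 µg/ml doxorubicin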
- Scale: raw ATP luminescence: higher = more viable cells, protection from doxorubicin
- Hit rule: 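Active when both duplicate wells lie at least 2 SD above the plate mean and protection is confirmed by rescreening and independent dsRNAs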
The deposit covers about 19,000 reagents; this is a random part of those that have a named target and a result. In the full data, 47 (0.25%) are marked active. 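Signals are raw, not normalised; exact z-scores behind calls not deposited; actives needed confirmation, so some wells reaching 2 SD are inactive.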

B9d1 [DRSC14993] | raw ATP luminescence, replicate 1 = 84090; raw ATP luminescence, replicate 2 = 61620; Outcome = inactive
Xpd (Xeroderma pigmentosum D) [DRSC04666] | raw ATP luminescence, replicate 1 = 65283; raw ATP luminescence, replicate 2 = 54173; Outcome = inactive
CG10359 [DRSC08156] | raw ATP luminescence, replicate 1 = 32377; raw ATP luminescence, replicate 2 = 36543; Outcome = inactive
Osi23 (Osiris 23) [DRSC15074] | raw ATP luminescence, replicate 1 = 52450; raw ATP luminescence, replicate 2 = 39900; Outcome = inactive
CG34309 [DRSC14838] | raw ATP luminescence, replicate 1 = 66490; raw ATP luminescence, replicate 2 = 70270; Outcome = inactive
CG7970 [DRSC08605] | raw ATP luminescence, replicate 1 = 47133; raw ATP luminescence, replicate 2 = 71703; Outcome = inactive
CG1773 [DRSC06688] | raw ATP luminescence, replicate 1 = 69807; raw ATP luminescence, replicate 2 = 57270; Outcome = inactive
MED17 (Mediator complex subunit 17) [DRSC16889] | raw ATP luminescence, replicate 1 = 38783; raw ATP luminescence, replicate 2 = 34953; Outcome = inactive
sala (spalt-adjacent) [DRSC03605] | raw ATP luminescence, replicate 1 = 28913; raw ATP luminescence, replicate 2 = 67880; Outcome = inactive
Gdi (GDP dissociation inhibitor) [DRSC03330] | raw ATP luminescence, replicate 1 = 94567; raw ATP luminescence, replicate 2 = 70023; Outcome = inactive
Acp29AB (Accessory gland protein 29AB) [DRSC01857] | raw ATP luminescence, replicate 1 = 28053; raw ATP luminescence, replicate 2 = 57100; Outcome = inactive
SerT (Serotonin transporter) [DRSC04655] | raw ATP luminescence, replicate 1 = 40557; raw ATP luminescence, replicate 2 = 49400; Outcome = inactive
CG2652 [DRSC18501] | raw ATP luminescence, replicate 1 = 2.16e5; raw ATP luminescence, replicate 2 = 2.57e5; Outcome = inactive
Trx2 (Thioredoxin 2) [DRSC03622] | raw ATP luminescence, replicate 1 = 36053; raw ATP luminescence, replicate 2 = 71723; Outcome = inactive
CG13318 [DRSC14581] | raw ATP luminescence, replicate 1 = 54103; raw ATP luminescence, replicate 2 = 54990; Outcome = inactive
sqa (spaghetti-squash activator) [DRSC06693] | raw ATP luminescence, replicate 1 = 67110; raw ATP luminescence, replicate 2 = 50597; Outcome = inactive
Mapmodulin [DRSC06956] | raw ATP luminescence, replicate 1 = 59723; raw ATP luminescence, replicate 2 = 64450; Outcome = inactive
IFT52 (Intraflagellar transport 52) [DRSC03271] | raw ATP luminescence, replicate 1 = 23840; raw ATP luminescence, replicate 2 = 23417; Outcome = inactive
l(2)SH0834 (lethal (2) SH0834) [DRSC02854] | raw ATP luminescence, replicate 1 = 42623; raw ATP luminescence, replicate 2 = 66623; Outcome = inactive
CheB98a (Chemosensory protein A 98a) [DRSC14882] | raw ATP luminescence, replicate 1 = 44660; raw ATP luminescence, replicate 2 = 33830; Outcome = inactive
CG9662 [DRSC00723] | raw ATP luminescence, replicate 1 = 28257; raw ATP luminescence, replicate 2 = 26873; Outcome = inactive
CG31419 [DRSC15771] | raw ATP luminescence, replicate 1 = 77720; raw ATP luminescence, replicate 2 = 72700; Outcome = inactive
Rab3-GEF (Rab3 GDP-GTP exchange factor) [DRSC19954] | raw ATP luminescence, replicate 1 = 3.13e5; raw ATP luminescence, replicate 2 = 2.90e5; Outcome = inactive
Rab3-GEF (Rab3 GDP-GTP exchange factor) [DRSC19955] | raw ATP luminescence, replicate 1 = 2.82e5; raw ATP luminescence, replicate 2 = 3.44e5; Outcome = inactive
Rab3-GEF (Rab3 GDP-GTP exchange factor) [DRSC19956] | raw ATP luminescence, replicate 1 = 1.31e5; raw ATP luminescence, replicate 2 = 1.35e5; Outcome = inactive
Obp99a (Odorant-binding protein 99a) [DRSC15303] | raw ATP luminescence, replicate 1 = 40940; raw ATP luminescence, replicate 2 = 37780; Outcome = inactive
YL-1 [DRSC02765] | raw ATP luminescence, replicate 1 = 44180; raw ATP luminescence, replicate 2 = 1.03e5; Outcome = inactive
CG14752 [DRSC06488] | raw ATP luminescence, replicate 1 = 37740; raw ATP luminescence, replicate 2 = 71177; Outcome = inactive
